Among all 320,000 compounds or so, about 620 (0.19%) were called active. This list was built around the results that the source calls inconclusive (neither active nor inactive); the mix of calls is not that of the screen. Rule as the data show it: active = activation above about 80%; inconclusive = between about 30% and that limit; inactive = weaker than that.
Molecular target: Transient receptor potential cation channel subfamily V member 1 (Homo sapiens) (UniProt Q8NER1)
Test: HTS Assay for Compounds that Act as Agonists of the Vanilloid Receptor 1; also: 0% is about no effect
Conditions: TRPV1-expressing cells, Fluo-8 calcium influx, agonist mode; at 8.33 µM, stronger effect = higher value
In short: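 Cells expressing TRPV1 were dye-loaded with Fluo-8 and read kinetically: 10 s baseline, 3 min after compound (agonist portion), then 2 min after EC20 capsaicin (allosteric enhancer portion). Calcium-bound dye fluorescence at 480/520 nm.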

Chains of the proteins cited; added tags and fusions are not shown.
UniProt Q8NER1, whole entry, looked up: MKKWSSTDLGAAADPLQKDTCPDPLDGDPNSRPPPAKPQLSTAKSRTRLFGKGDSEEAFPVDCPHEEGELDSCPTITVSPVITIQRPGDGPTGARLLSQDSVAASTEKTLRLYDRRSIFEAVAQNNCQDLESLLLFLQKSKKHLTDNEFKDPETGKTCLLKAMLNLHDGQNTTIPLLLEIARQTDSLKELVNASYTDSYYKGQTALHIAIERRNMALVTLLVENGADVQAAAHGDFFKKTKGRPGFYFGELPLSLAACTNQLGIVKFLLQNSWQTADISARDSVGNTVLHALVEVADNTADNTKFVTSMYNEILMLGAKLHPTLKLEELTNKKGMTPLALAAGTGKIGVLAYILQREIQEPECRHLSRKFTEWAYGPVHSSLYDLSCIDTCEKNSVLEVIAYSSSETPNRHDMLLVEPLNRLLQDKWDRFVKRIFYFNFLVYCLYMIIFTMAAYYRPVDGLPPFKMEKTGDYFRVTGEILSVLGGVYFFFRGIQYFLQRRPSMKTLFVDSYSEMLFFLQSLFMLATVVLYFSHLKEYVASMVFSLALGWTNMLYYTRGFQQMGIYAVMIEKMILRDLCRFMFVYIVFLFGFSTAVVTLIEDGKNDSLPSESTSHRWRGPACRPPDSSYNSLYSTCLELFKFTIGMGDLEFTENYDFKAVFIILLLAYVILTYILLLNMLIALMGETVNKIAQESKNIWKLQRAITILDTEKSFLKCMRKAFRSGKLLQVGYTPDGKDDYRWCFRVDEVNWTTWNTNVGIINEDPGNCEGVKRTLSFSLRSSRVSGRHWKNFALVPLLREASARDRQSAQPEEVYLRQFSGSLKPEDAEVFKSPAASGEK

SMILES	activation
Cc1cc(C(=O)Nc2cnn(Cc3ccc(Cl)cc3Cl)c2)no1	inconclusive: 32.5%
Cn1nc(-c2ccc(Cl)cc2)nc2c(=O)n(C)c(=O)nc1-2	inactive: -3.58%
Cc1ccc(-c2nn(-c3ccccc3)c3[nH]c(=O)c(CNCCN(C)C)cc23)cc1	inactive: 2.13%
C=CCNCC(=O)Nc1sc2c(c1C(=O)Nc1ccc(OC)cc1OC)CCC2	inactive: 7.4%
COc1cc(/C=N/NC(=O)c2ccc([N+](=O)[O-])cc2Cl)cc(Br)c1O	inconclusive: 59.9%
Cc1cc(C)cc(OCc2ccc(C(=O)NN)o2)c1	inconclusive: 44.7%
COc1ccc(OC)c(N=C2SCCCN2C(=O)c2ccc(N3C(=O)CCC3=O)cc2)c1	inactive: -1.59%
CN(CC(=O)Nc1ccc(Cl)cc1)C(=O)c1ccc(N2CCCC2=O)cc1	inactive: -1.84%
Cc1cc(OCC(=O)N(C)Cc2ccccc2)cc(C)c1Cl	inconclusive: 31.6%
CCCCNC(=O)CSc1nc2ccc(C)cc2[nH]1	inconclusive: 49.6%
COc1ccc(Nc2cnn(-c3nc4ccccc4s3)c(=O)c2Cl)cc1	inconclusive: 72%
O=S(=O)(c1ccc(-c2ccon2)s1)N1CCN(c2ccccn2)CC1	inconclusive: 38.9%
Cc1cccn2c(=O)c3cc(C(=O)NCc4ccco4)c(=N)n(CCc4ccccc4)c3nc12	inconclusive: 67.4%
Cc1cccc(N2CCN(C(=O)CCNS(=O)(=O)c3ccc4c(c3)oc(=O)n4C)CC2)c1C	inconclusive: 61.6%
Cc1cc(Cl)c2oc(C(=O)NCCC3CCCCO3)c(C)c2c1 (stereo unspecified)	inconclusive: 38.5%
CCCCc1ccc(NS(=O)(=O)c2cccc(C(=O)N3CCCN(C)CC3)c2)cc1	inactive: -2.57%
O=C(COc1ccc2c(-c3ccccc3)cc(=O)oc2c1)NC1CCS(=O)(=O)C1 (stereo unspecified)	inactive: -0.875%
COc1ccc2c(c1)c(=O)oc1cc(OCC(=O)N3CCC(C)CC3)ccc12	inconclusive: 42.3%
Cc1ccc(C)c(NC(=S)N2CCN(CCO)CC2)c1	inactive: -1.08%
COc1cccc(C2=CC(=O)C[C@H](c3ccc4c(c3)OCO4)C2)c1	inconclusive: 50.1%
CC(=O)N/C(=N\c1nc(C)cc(C)n1)Nc1ccccc1Cl	inactive: 2.52%
CCCC1(c2ccccc2)NC(=O)N(CC(=O)c2[nH]c(C)c(C(=O)OCC)c2C)C1=O (stereo unspecified)	inactive: -2.82%
Cc1ccc(Nc2cc(C)c3c(O)cccc3n2)cc1C	inactive: 1.93%

SMILES	activation
Brc1ccc(-c2nnc(-c3ccc4c(c3)OCO4)o2)o1	inconclusive: 32.9%
COc1ccc(-c2c(-c3cc(OC)c(OC)c(OC)c3)noc2C)cn1	inconclusive: 34.6%
CCOc1cc(-c2noc(N)c2C#N)cc(OCC)c1OCC	inconclusive: 43.1%
O=C(CCC1CCCN(C(=O)c2cc(C3CC3)[nH]n2)C1)N1CCN(c2ccccn2)CC1 (stereo unspecified)	inactive: 2.14%
CC(C(=O)Nc1ccc(F)c(F)c1F)N(C)Cc1cccs1 (stereo unspecified)	inconclusive: 44.1%
Cc1ccc(-c2c(NC(=O)C(C)C)n(C)c3ccccc3c2=O)cc1	inactive: 0.0078%
OCCNc1nc(-c2cccnc2)nc2ccccc12	inactive: -2.53%
Cc1ccc(NC(=O)Nc2cnccn2)cc1	inconclusive: 33.1%
Cc1cccnc1NC(=S)NCCc1ccccc1	inconclusive: 34.7%
CC(Sc1nc2c([nH]c3ccccc32)c(=O)n1C)c1ccccc1 (stereo unspecified)	inconclusive: 36.5%
Clc1cccc(-c2nc(-c3ccccn3)no2)c1	inactive: 19.9%
CC(C)(C)OC(=O)N1CCC(C(=O)Nc2ccc3c(c2)CCC3)CC1	inconclusive: 71.7%
Cc1ccc(C(=O)N2CCCC(c3ccccc3)=N2)cc1	inconclusive: 63.8%
CCCCNC(=S)NCc1ccc2c(c1)cc(C)n2C	inconclusive: 38.8%
CC1CCN(C(=O)c2ccc(NC(=O)c3ccccc3)cc2)CC1	inconclusive: 30.9%
Cc1ccccc1NC(=O)NCCCCc1ccccc1	inconclusive: 50.1%
Cn1cc(C2=C(c3ccc(Cl)cc3Cl)C(=O)NC2=O)c2ccccc21	inconclusive: 56.3%
COc1ccc(/C(C#N)=C/c2cccnc2)cc1	inconclusive: 42.8%
Cc1sc2nc(CSc3ccccc3)nc(N3CCC(C(N)=O)CC3)c2c1C	inconclusive: 58.7%
Cc1ccccc1OC(=O)CCC(=O)OCCCC(F)(F)C(F)(F)F	inconclusive: 34.4%
O=C(Nc1ccc(S(=O)(=O)N2CCCC2)cc1)C1COc2ccccc2O1 (stereo unspecified)	inconclusive: 39.3%
Fc1cccc(Nc2c3c(nc4ccccc24)CCC3)c1	inconclusive: 39.1%
COc1cccc(CNC(=O)c2ccc(S(=O)(=O)N3CCOCC3)cc2)c1	inconclusive: 38.2%

SMILES	activation
Cc1nn2c(nc(N3CCCCC3)c3ccccc32)c1C=O	inconclusive: 40%
Cc1cc(NC(=O)c2ccco2)c(=O)n(Cc2cccc(C(F)(F)F)c2)c1	inconclusive: 38.4%
O=C(NCCn1ccc2ccccc21)c1cccc([N+](=O)[O-])c1	inactive: 26%
Cc1ccccc1NC(=S)N(CCN(C)C)C(C)c1cccnc1 (stereo unspecified)	inactive: -0.228%
Cc1ccc(N2CC(C(=O)Nc3cc(Cl)ccc3-n3cncn3)CC2=O)cc1 (stereo unspecified)	inconclusive: 32.9%
O=c1cc2c(nn1Cc1ccccc1)-c1ccccc1CC2	inconclusive: 43.8%
COc1cc(/C=N/NC(=O)c2cccc(S(=O)(=O)N3CCCCC3)c2)cc(Br)c1O	inconclusive: 36.7%
CCCCn1c(=O)n(C)c(=O)c2c(C(F)(F)F)cc(-c3ccncc3)nc21	inconclusive: 40.5%
NNC(=O)c1cc2cc3ccccc3nc2s1	inactive: -1.11%
CC(C)(C)c1ccccc1NC(=S)NC1CCCCC1	inconclusive: 32.9%
S=C(Nc1ccc(Oc2ccccc2)cc1)NC1CCCC1	inconclusive: 37.2%
O=C(CN1C(=O)COc2ccc(S(=O)(=O)N3CCCC3)cc21)Nc1cccc(F)c1	inactive: -0.138%
CCN(CC)c1nc(C(N)=O)cc(-c2ccccc2)n1	inconclusive: 39.3%
COc1ccccc1N1CCN(C(=O)c2ccc(C(C)(C)C)cc2)CC1	inconclusive: 30.9%
CCC(=O)Nc1nc(C)c(-c2csc(Nc3cccc(C(=O)O)c3)n2)s1	inactive: -1.38%
O=C(Nc1ccc(S(=O)(=O)N2CCOCC2)cc1)c1ccc(F)cc1	inconclusive: 38.1%
CCCCOc1ccc(/C=N/Nc2cc(N3CCOCC3)nc(C)n2)cc1	inactive: -7.4%
O=C(Nc1ccc(Cl)cc1)Nc1nc(-c2ccccc2O)cs1	inconclusive: 65.9%
COc1ccc(-c2ccc3ccccc3n2)cc1OC	inconclusive: 47.7%
Cc1nn(-c2ccccc2)nc1CNC(=O)C1CCC1	inactive: 18.7%
O=C(NCc1ccc(Cl)cc1)c1ccc(-c2ccccc2C(F)(F)F)o1	inactive: -1.01%
CC1(C)CC(=O)c2c(O)cc(OCC(=O)N3CCN(c4ccc(F)cc4)CC3)cc2O1	inconclusive: 75%
CCCCCc1c(O)c2ccccc2[nH]c1=O	inactive: -0.652%

Quoted at random: 5 records from the list.
SMILES	activation
Cn1cc(C2=C(c3ccc(Cl)cc3Cl)C(=O)NC2=O)c2ccccc21	inconclusive: 56.3%
Cc1cc(NC(=O)c2ccco2)c(=O)n(Cc2cccc(C(F)(F)F)c2)c1	inconclusive: 38.4%
O=C(CCC1CCCN(C(=O)c2cc(C3CC3)[nH]n2)C1)N1CCN(c2ccccn2)CC1 (stereo unspecified)	inactive: 2.14%
CCC(=O)Nc1nc(C)c(-c2csc(Nc3cccc(C(=O)O)c3)n2)s1	inactive: -1.38%
Cc1ccc(C)c(NC(=S)N2CCN(CCO)CC2)c1	inactive: -1.08%

Following part

SMILES	activation
CC(OC(=O)c1c2c(nc3ccccc13)/C(=C\c1ccc3c(c1)OCO3)CCC2)C(=O)Nc1ccc(S(N)(=O)=O)cc1 (stereo unspecified)	inconclusive: 54.7%
N#C/C(=C\c1cc2ccccc2nc1N1CCCCC1)C(N)=O	inconclusive: 78.4%
C=CCNC(=O)c1ccc2c(=O)n(Cc3ccccc3OC)c(=S)[nH]c2c1	inconclusive: 32.4%
CC(C)(C)c1ccc(C(=O)NC(=S)NNC(=O)c2cccs2)cc1	inconclusive: 39.2%
CCCn1cc(CN2CCCC(C(=O)c3cccc(OC(C)C)c3)C2)c(C)n1 (stereo unspecified)	inconclusive: 42%
CN(C)c1cccc(C(=O)Nc2nnc(Cc3ccccc3)s2)c1	inconclusive: 34%
O=C(Nc1ccc(Cl)cc1)C1=Cc2ccccc2OC1	inconclusive: 65.1%
COc1ccc(N2C(=O)CN=C2Nc2nc(C)cc(C)n2)cc1OC	inactive: 1.93%
S=C(NNc1ccnc2cc(Cl)ccc12)Nc1ccc(Cl)cc1Cl	inconclusive: 36.3%
CCC(NC(=O)c1cc(COc2cncc(Cl)c2)on1)c1ccc(C)cc1 (stereo unspecified)	inconclusive: 51.9%
O=C1C=C(NC(=O)Nc2ccc(Cl)c(Cl)c2)CCC1	inactive: -0.16%
CC(C)c1ccc(NC(=O)CCNS(=O)(=O)c2cccc3nonc23)cc1	inconclusive: 31.6%
CCOC(=O)c1ccc2ncc(C(=O)OCC)c(NCc3ccco3)c2c1	inconclusive: 43.9%
COc1ccc(C(=O)OCC(=O)Nc2nnc(-c3ccccc3)o2)cc1	inactive: 0.361%
CC(NC(=O)CN(C)Cc1cccs1)c1ccccc1 (stereo unspecified)	inconclusive: 34.5%
O=C(C1=C[C@H](c2ccc(C(F)(F)F)cc2)C[C@H](OCc2ccc(CO)cc2)O1)N1CCCCCCC1	inconclusive: 40.7%
O=C(C1CCN(c2nc(-c3ccccc3)nc3c2CCC3)CC1)N1CCC(O)CC1	inconclusive: 59.4%
O=C(COC(=O)CC1CCCC1)Nc1ccc(OC(F)F)cc1	inconclusive: 40.2%
COC(=O)C1=C(C)N(C)C(=S)NC1c1c(OC)ccc2ccccc12 (stereo unspecified)	inactive: 0.933%
CCOC(=O)c1[nH]c2cc(OC)c(OC)cc2c1NC(=O)CN(C)C1CCCCC1	inconclusive: 65.2%
Cc1occc1C(=O)N1CCCC(Nc2ccc(F)c(F)c2)C1 (stereo unspecified)	inconclusive: 45.8%
Cc1ccc(-c2nc(NCC3CCCO3)sc2C)cc1 (stereo unspecified)	inconclusive: 36%
